According to PubChem BioAssay AID504444 (National Center for Advancing Translational Sciences (NCATS), 2011):
The whole screen tested about 360,000 compounds, of which about 7,500 (2.1%) were called active. Inconclusive means that the source gave no clear call. Such entries were picked first, then a sample of the others. Calls come from the whole dose curve; as a rule, active = well fitted inhibition curve with a large enough effect; inconclusive = small, poorly fitted or top-dose-only effect, or effect the other way; inactive = flat fitted curve, though single readings scatter. Potencies beside an inconclusive call are fits to weak or partial responses and may not hold up.

Assay: Nrf2 qHTS screen for inhibitors; note: nearly all actives have a fitted effect of over 60% in size
Settings: A549 ARE-Fluc reporter, luciferase luminescence, 18-24 h; activity change, negative = inhibition: at 46 µM (top of the series)
Procedure, shortened: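 Concentration-response testing used A549 ARE_Fluc cells at 5000 cells/well. Following an 18-24 h compound incubation, viability was read by fluorescence (Ex 405/Em 525) and luciferase output by luminescence.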
% is set by controls: 0 for no effect and ±100 for the full control effect; potency is the fitted concentration of half-maximal effect.

Row | Compound | activity change, negative = inhibition | Potency
1 | CCc1nc(-c2cc3ccc(C)cc3[nH]c2=O)no1 | inactive: 7.49% | 
2 | COc1ccccc1CNC(=O)CCCc1cn(C)c2ccccc12 |  | inconclusive: 29.1 µM [falling, partial curve, poor fit]
3 | Cc1cc(NS(=O)(=O)c2ccc(NC(=O)COc3ccccc3[N+](=O)[O-])cc2)no1 |  | inconclusive: 29.1 µM [falling, single point]
4 | CCN(CC(=O)Nc1c(F)cccc1F)C(=O)Cn1[nH]c(=O)c2ccccc2c1=O |  | inconclusive: 7.31 µM [falling, single point]
5 | Cc1nc2ccc(NC(=O)CCC3CCCC3)cc2s1 |  | inconclusive: 23.1 µM [activator, single point]
6 | CN(C)C(CNC(=O)CNC(=O)c1ccc2ccccc2c1)c1ccccc1 (stereo not drawn) |  | inconclusive: 29.1 µM [activator, single point]
7 | CC(Sc1nnc(NC2CC2)s1)C(=O)Nc1ccc(N2CCOCC2)cc1 (stereo not drawn) | inactive: 3% | 
8 | C/C(CC(=O)Nc1ccc(Cl)cc1Cl)=N\NC(=O)c1cnccn1 |  | inconclusive: 20.6 µM [activator, partial curve]
9 | CCCCN(C(=O)c1ccc(N(C)S(=O)(=O)c2ccc(C)cc2)cc1)c1c(N)n(CCCC)c(=O)[nH]c1=O | inactive: -2.36% | 
10 | CN1c2ccc([N+](=O)[O-])cc2N(C)C1(C)c1ccccc1 (stereo not drawn) |  | inconclusive: 29.1 µM [falling, single point]
11 | O=C(O)CCc1ccc(-c2cccs2)n1NC(=O)c1ccc(Cl)cc1 |  | inconclusive: 1.03 µM [activator, full curve, poor fit]
12 | O=C(CSCc1ccccc1)Nc1ccc2c(c1)C(=O)NC2=O |  | inconclusive: 20.6 µM [activator, partial curve, poor fit]
13 | Cc1nnc(NC(=O)c2cccc(S(=O)(=O)N3CCc4ccccc43)c2)s1 |  | inconclusive: 1.3 µM [falling, partial curve, poor fit]
14 | O=C(NC1CCCCCCC1)c1cc(COc2ccc3ncccc3c2)on1 |  | active: 3.26 µM
15 | CCCCNc1nc2c(c(=O)n(Cc3ccc(Cl)cc3)c(=O)n2C)n1C |  | inconclusive: 23.1 µM [falling, single point]
16 | O=C(N/N=C/C(Br)=C/c1ccccc1)c1ccccc1F |  | inconclusive: 1.3 µM [activator, full curve]
17 | O=C(O)c1ccc(N/N=C/c2cc(Br)cs2)cc1 |  | inconclusive: 1.3 µM [activator, full curve, poor fit]
18 | Cc1ccc(-n2nc3c(=O)n(C(C)C(=O)NCCC4=CCCCC4)nc(C)c3c2C)cc1 (stereo not drawn) |  | active: 20.6 µM
19 | O=C(Nc1cc(=O)c2ccccc2o1)N1CCCCC1 |  | inconclusive: 6.51 µM [falling, full curve]
20 | COC(=O)c1nn(Cc2ccccc2)c(=O)c2ccccc12 | inactive: -22.2% | 
21 | Nc1nnc2c(n1)[nH]c1ccccc12 | inactive: 24.4% | 
22 | O=C(COC(=O)C12CC3CC(CC(O)(C3)C1)C2)NC12CC3CC(CC(C3)C1)C2 |  | inconclusive: 18.4 µM [activator, single point]
23 | OCCCn1c(C2CCCN2c2nc(-c3ccc(Cl)cc3)cs2)nc2cc(Cl)c(Cl)cc21 (stereo not drawn) |  | inconclusive: 4.11 µM [activator, partial curve, poor fit]

Copied from the results shown, 2 compounds:
Row | Compound | activity change, negative = inhibition | Potency
9 | CCCCN(C(=O)c1ccc(N(C)S(=O)(=O)c2ccc(C)cc2)cc1)c1c(N)n(CCCC)c(=O)[nH]c1=O | inactive: -2.36% | 
10 | CN1c2ccc([N+](=O)[O-])cc2N(C)C1(C)c1ccccc1 (stereo not drawn) |  | inconclusive: 29.1 µM [falling, single point]

(next part)

Row | Compound | activity change, negative = inhibition | Potency
24 | O=C(C(Cc1ccccc1)n1cccc1)N1CCN(Cc2ccccc2)CC1 (stereo not drawn) | inactive: 11.9% | 
25 | CCCCN(CCCC)C1=C(C(=O)c2ccccc2)N(C)S(=O)(=O)c2ccccc21 |  | inconclusive: 29.1 µM [falling, single point]
26 | O=C(CCCc1ccncc1)c1ccccc1 |  | inconclusive: 3.26 µM [activator, full curve]
27 | CCOC(=O)COc1coc(CN2CCN(c3ccccc3)CC2)cc1=O | inactive: -0.455% | 
28 | COc1cccc(-c2nn3c(-c4cc(C)[nH]n4)nnc3s2)c1 |  | inconclusive: 13 µM [falling, single point]
29 | COc1ccc(C(=O)NC(=S)NCc2ccco2)cc1Br |  | inconclusive: 6.51 µM [falling, partial curve, poor fit]
30 | C=C(C)CSc1nnc2[nH]c(=O)cc(N)n12 | inactive: -6.28% | 
31 | CC(=O)Nc1ccc(N(C(=O)c2ccco2)C(C(=O)NC2CCCC2)c2cccs2)cc1 (stereo not drawn) |  | inconclusive: 0.259 µM [falling, full curve, poor fit]
32 | COc1cc(C(c2nnnn2C2CCCC2)N2CCc3ccccc3C2)ccc1O (stereo not drawn) | inactive: 15.7% | 
33 | CCOc1cc2ccccc2cc1C(=O)Nc1ccccn1 |  | inconclusive: 5.17 µM [activator, partial curve]
34 | COc1ccc(/C=C/C(=O)NC2CCCCCC2)cc1S(=O)(=O)N1CCOCC1 |  | inconclusive: 29.1 µM [activator, single point]
35 | CCN(C(=O)COC(=O)c1cc(Cl)ccc1OC)c1c(N)n(Cc2ccccc2)c(=O)[nH]c1=O |  | inconclusive: 0.82 µM [falling, full curve]
36 | COc1ccccc1NS(=O)(=O)c1cc(NC(=O)Cc2n[nH]c(=O)c3ccccc23)ccc1Cl |  | active: 20.6 µM
37 | O=C(COc1ccc2c3c(c(=O)oc2c1)CCC3)N1CCN(c2ccc(F)cc2)CC1 |  | active: 23.1 µM
38 | O=C(CN1CCN(c2ccccc2F)CC1)c1ccc(O)c(O)c1 |  | inconclusive: 23.1 µM [activator, partial curve]
39 | COc1ccc(NC(=O)CNC(=O)Cn2c(C)cc3ccccc3c2=O)cc1OC |  | inconclusive: 13 µM [falling, partial curve, poor fit]
40 | CCCCN1C(C(=O)c2ccccc2)=C(OC(C)=O)c2ccccc2S1(=O)=O |  | active: 8.2 µM
41 | C=CC[C@@H](CC(=O)N[C@@H](CO)Cc1ccccc1)C(=O)NC[C@H](OC(=O)[C@@H](CC=C)Cc1ccc(F)cc1)c1ccccc1 |  | inconclusive: 29.1 µM [falling, single point]
42 | Cc1ccc2nc(-c3cccc(N)c3)oc2c1 |  | inconclusive: 2.31 µM [activator, full curve]
43 | Cc1ccccc1C(=O)NC(=S)NC1CCS(=O)(=O)C1 (stereo not drawn) | inactive: -8.8% | 
44 | CC(C)N(Cc1ccccc1)S(=O)(=O)c1ccc(F)cc1 |  | inconclusive: 18.4 µM [falling, single point]
45 | COc1ccc(C)cc1N(C)C(=O)c1c2c(nc3ccccc13)C(=O)N(C1CCCCC1)C2 |  | inconclusive: 11.6 µM [falling, partial curve, poor fit]
46 | CC(C)(C)n1nnnc1C(c1ccc2ncccc2c1)N1CCC(O)CC1 (stereo not drawn) |  | inconclusive: 18.4 µM [falling, single point]

Row | Compound | activity change, negative = inhibition | Potency
47 | CCOc1ccc(N(CC)S(=O)(=O)N2CCCC(C(=O)Nc3cc(Cl)ccc3OC)C2)cc1 (stereo not drawn) |  | inconclusive: 29.1 µM [falling, partial curve, poor fit]
48 | CCc1nc2cc3sc(CC)nc3cc2s1 |  | inconclusive: 5.8 µM [activator, partial curve, poor fit]
49 | CC(C)N(C(=O)[C@H]1C[C@H](CC(=O)NCc2ccco2)C(=O)N2CCc3c([nH]c4cc(CCC(=O)N(C)C)ccc34)[C@]12C)C(C)C |  | inconclusive: 18.4 µM [activator, single point]
50 | COc1ccc(C(C(=O)NC2CCCC2)N(C(=O)c2snc(-c3ccc(F)cc3)c2N)c2cccc(F)c2)cc1 (stereo not drawn) |  | inconclusive: 29.1 µM [falling, partial curve, poor fit]
51 | Cc1ccc(-c2cc(-c3ccc(F)cc3)c(C#N)c(N)n2)o1 | inactive: 4.97% | 
52 | COc1ccc(CNS(=O)(=O)c2ccc(-c3cnc(C4CC4)o3)cc2)cc1 |  | inconclusive: 18.4 µM [falling, partial curve]
53 | COc1ccc(Nc2ncc(C(=O)N3CCN(c4ccc(F)cc4)CC3)c3ccccc23)cc1 |  | inconclusive: 20.6 µM [falling, single point]
54 | COc1ccccc1NC(=O)CSc1ccc(-c2cccs2)nn1 |  | inconclusive: 20.6 µM [falling, single point]
55 | Cc1ccc(Nc2c(-c3ccco3)nc3ccccn23)cc1 |  | inconclusive: 5.8 µM [activator, partial curve, poor fit]
56 | CCc1ccc(OCCn2cccn2)cc1 |  | inconclusive: 20.6 µM [activator, single point]
57 | Cc1cc(C)c(S(=O)(=O)c2ccccc2)c(N2CCOCC2)n1 |  | inconclusive: 32.6 µM [activator, partial curve, poor fit]
58 | c1ccc(CN2CCN(c3ncccn3)CC2)cc1 | inactive: -0.129% | 
59 | CCCc1ccc(OC(=O)c2ccc(O)cc2Cl)cc1 |  | inconclusive: 7.31 µM [activator, partial curve, poor fit]
60 | CCOc1ccc(NCc2cccn2-c2nnc(N3CCC(C(=O)NCCOC)CC3)s2)cc1 | inactive: 9.24% | 
61 | CC(C)(C)OC(=O)NC1CNNC1=O (stereo not drawn) | inactive: -3.58% | 
62 | Cc1ccc(C(=O)NC2CCCCCC2)o1 |  | inconclusive: 11.6 µM [activator, partial curve]
63 | O=C(O)CC(NC(=O)Cc1ccc(Cl)cc1)c1ccco1 (stereo not drawn) | inactive: -6.53% | 
64 | Cc1cc(NC(=O)c2ccc(NC(=O)C3CCCO3)cc2)ccc1Br (stereo not drawn) | inactive: 6.06% | 
65 | Cc1cccc(C(=O)OCC(=O)NCCCc2ccccc2)c1 | inactive: 2.18% | 
66 | CCOC(=O)c1ccc(S(=O)(=O)N2CCN(CC(O)COc3ccc(C#N)cc3)CC2)cc1 (stereo not drawn) |  | inconclusive: 18.4 µM [activator, partial curve, poor fit]
67 | O=C(NC(=S)NC1CCCCC1)c1ccccc1 |  | inconclusive: 20.6 µM [activator, single point]
68 | CC1(C)Cc2c(sc3c2c(=N)n(Cc2ccco2)c(=O)n3Cc2ccc(F)cc2)CO1 |  | inconclusive: 4.11 µM [falling, partial curve, poor fit]

Structures above that contain a nitro group on carbon (2):
Row | Compound | activity change, negative = inhibition | Potency
3 | Cc1cc(NS(=O)(=O)c2ccc(NC(=O)COc3ccccc3[N+](=O)[O-])cc2)no1 |  | inconclusive: 29.1 µM [falling, single point]
10 | CN1c2ccc([N+](=O)[O-])cc2N(C)C1(C)c1ccccc1 (stereo not drawn) |  | inconclusive: 29.1 µM [falling, single point]
